Experimental data as given in US20020120111A1, “Dwf5 mutants” (priority 2000, published 2002).
Some results were stated once for a whole list of compounds, not compound by compound. At least one structure is not confirmed: it was looked up by name or label, or the drawing left a doubt.

Test system: dwf5-1 plants
Test: biochemical complementation of dwf5-1 plants with brassinolide and its biosynthetic intermediates (pedicel length)
Assay type: in vivo, Arabidopsis
Conditions: exogenous application to dwf5 plants
Method: Standard procedures for plant growth, measurements on floral organs, scoring the number of seeds in a silique, biochemical complementation tests with Brassinosteroids, analysis of endogenous Brassinosteroids, and 13C-labeled mevalonic acid feeding experiments have been described previously (Choe, et al., 1999b). […] The ability of Brassinosteroids to rescue the phenotype of dwf5 was tested. The data presented in FIG. 2 show the biochemical complementation of dwf5-1 plants with brassinolide (BL) and its biosynthetic intermediates. […] The length of pedicels was measured 7 days after application (n=15). Data points represent the average with one standard deviation. Further, the BR biosynthetic intermediate 6-deoxocathasterone (6-DeoxoCT), and the synthetic compound 22-hydroxycampesterol (22-OHCR) induced pedicel growth up to 80% of wild-type length.

| Structure (SMILES) | pedicel growth, % of wild-type length |
| --- | --- |
| CC(C)[C@H](C)C[C@H](O)[C@@H](C)[C@H]1CC[C@H]2[C@@H]3CC[C@H]4C[C@@H](O)CC[C@]4(C)[C@H]3CC[C@]12C [6-deoxocathasterone] | up to 80 % of wild-type length |
| CC(C)[C@H](C)C[C@H](O)[C@@H](C)[C@H]1CC[C@H]2[C@@H]3CC=C4C[C@@H](O)CC[C@]4(C)[C@H]3CC[C@]12C [22-hydroxycampesterol] | up to 80 % of wild-type length |
